Values from PubChem BioAssay AID652259 (Drosophila RNAi Screening Center, 2013)

Aim: 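Knock-downs that push a Wingless-driven reporter up or down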 (primary screen)
Cells: Drosophila clone 8 imaginal disc epithelial cells
Knock-down reagent: long dsRNA against Drosophila genes
Treatment: pathway stimulated by co-transfected Wingless expression plasmid
Read-out: 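Dual luciferase reads per well after Wingless plasmid stimulation: reporter firefly light and Renilla control light; activity is firefly divided by Renilla, a ratio not deposited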
Scale: firefly reporter light: higher = more Wg reporter light, before normalisation; Renilla control light: higher = more transfected or surviving cells
Call rule: 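a knock-down is a candidate when at least two out of four statistical tests show it departing from its plate mean; one test alone signals a weak candidate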
Meaning of the calls: active = candidate regulator (raises or lowers reporter); inactive = not a candidate
The deposit covers about 22,000 reagents; below is an unselected part of those that have a named target and a result. In the full data, 233 (1.1%) were called active. 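Light values are raw, unnormalised plate reads; the ratio scores behind the reporter calls were not deposited.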 A number with no mark means an inactive call. Reagents against one gene are numbered here. Names joined by + are all predicted targets of the reagent. The record does not give: the amount of reagent, the time to read-out, the dose of the treatment.

With knock-down of CG43795 + SkpF, the record shows firefly reporter light, replicate 1 = 3206; firefly reporter light, replicate 2 = 9249; Renilla control light, replicate 1 = 905; Renilla control light, replicate 2 = 2566.
Against CG3149 the deposit lists firefly reporter light, replicate 1 = 2201; firefly reporter light, replicate 2 = 6427; Renilla control light, replicate 1 = 1072; Renilla control light, replicate 2 = 2153.
With knock-down of CG42824, the screen gave firefly reporter light, replicate 1 = 4632; Renilla control light, replicate 1 = 1763.
Depletion of rno (rhinoceros) gave: firefly reporter light, replicate 1 = 5687; Renilla control light, replicate 1 = 3088.
Against l(3)neo38 (lethal (3) neo38) #1, the entry reads firefly reporter light, replicate 1 = 24342; Renilla control light, replicate 1 = 6040.
With knock-down of l(3)neo38 (lethal (3) neo38) #2, the screen gave firefly reporter light, replicate 1 = 19808; Renilla control light, replicate 1 = 4311.
With knock-down of CG4707, the record shows firefly reporter light, replicate 1 = 7782; Renilla control light, replicate 1 = 2800.
Against CG3568, the values are firefly reporter light, replicate 1 = 18899; Renilla control light, replicate 1 = 9962.
Against CG2701 the deposit lists firefly reporter light, replicate 1 = 2199; firefly reporter light, replicate 2 = 8432; Renilla control light, replicate 1 = 931; Renilla control light, replicate 2 = 2779.
CG3907 gave firefly reporter light, replicate 1 = 2304; firefly reporter light, replicate 2 = 6219; Renilla control light, replicate 1 = 330; Renilla control light, replicate 2 = 2467.
Tlk (Tousled-like kinase) #1 showed firefly reporter light, replicate 1 = 3184; Renilla control light, replicate 1 = 892.
Tlk (Tousled-like kinase) #2 scored firefly reporter light, replicate 1 = 21840; Renilla control light, replicate 1 = 7681.
Depletion of Tlk (Tousled-like kinase) #3 resulted in: firefly reporter light, replicate 1 = 12491; Renilla control light, replicate 1 = 7372.
Tlk (Tousled-like kinase) #4 scored firefly reporter light, replicate 1 = 8.56e5; firefly reporter light, replicate 2 = 9.34e5; Renilla control light, replicate 1 = 1.43e5; Renilla control light, replicate 2 = 83753.
After knock-down of Tlk (Tousled-like kinase) #5 the results were firefly reporter light, replicate 1 = 4.97e5; firefly reporter light, replicate 2 = 5.67e5; Renilla control light, replicate 1 = 1.10e5; Renilla control light, replicate 2 = 97475.
Tlk (Tousled-like kinase) #6 scored firefly reporter light, replicate 1 = 7.28e5; firefly reporter light, replicate 2 = 7.60e5; Renilla control light, replicate 1 = 2.29e5; Renilla control light, replicate 2 = 2.14e5.
eIF5B (eukaryotic translation initiation factor 5B) #1 showed firefly reporter light, replicate 1 = 2672; Renilla control light, replicate 1 = 1827.
After knock-down of eIF5B (eukaryotic translation initiation factor 5B) #2, the record shows reporter change call, replicate 1 = Wg reporter activity lowered; firefly reporter light, replicate 1 = 2092; Renilla control light, replicate 1 = 2000.
Knock-down of SCaMC #1 resulted in: firefly reporter light, replicate 1 = 4881; Renilla control light, replicate 1 = 2823.
For SCaMC #2 the deposit lists firefly reporter light, replicate 1 = 5859; Renilla control light, replicate 1 = 1744.
CG8958 showed firefly reporter light, replicate 1 = 21900; Renilla control light, replicate 1 = 10240.
CG7800 scored firefly reporter light, replicate 1 = 18992; Renilla control light, replicate 1 = 4624.
CD98hc (CD98 heavy chain) gave firefly reporter light, replicate 1 = 14816; Renilla control light, replicate 1 = 4240.
CG4596 scored firefly reporter light, replicate 1 = 13074; Renilla control light, replicate 1 = 3514.
With knock-down of Dh44 (Diuretic hormone 44) #1, the screen gave firefly reporter light, replicate 1 = 4028; Renilla control light, replicate 1 = 1845.
After knock-down of Dh44 (Diuretic hormone 44) #2 the results were firefly reporter light, replicate 1 = 14075; Renilla control light, replicate 1 = 3627.
With knock-down of lncRNA:CR43613 (long non-coding RNA:CR43613), the record shows firefly reporter light, replicate 1 = 3152; Renilla control light, replicate 1 = 1317.
Knock-down of lft (lowfat) came out at: firefly reporter light, replicate 1 = 3297; firefly reporter light, replicate 2 = 4058; Renilla control light, replicate 1 = 856; Renilla control light, replicate 2 = 2769.
Knock-down of Mon1 (Monensin sensitivity 1) came out at: firefly reporter light, replicate 1 = 2464; firefly reporter light, replicate 2 = 6557; Renilla control light, replicate 1 = 1093; Renilla control light, replicate 2 = 2160.
Knock-down of Vha13 (Vacuolar H[+] ATPase 13kD subunit) gave: firefly reporter light, replicate 1 = 23554; Renilla control light, replicate 1 = 3893.
Knock-down of cnir (cornichon related) resulted in: firefly reporter light, replicate 1 = 4748; firefly reporter light, replicate 2 = 10000; Renilla control light, replicate 1 = 1524; Renilla control light, replicate 2 = 4800.
For CG15543, the entry reads firefly reporter light, replicate 1 = 7165; Renilla control light, replicate 1 = 2586.

Reformatted: results already given
Tlk (Tousled-like kinase) #4
- firefly reporter light, replicate 1: 8.56e5
- firefly reporter light, replicate 2: 9.34e5
- Renilla control light, replicate 1: 1.43e5
- Renilla control light, replicate 2: 83753

Tlk (Tousled-like kinase) #5
- firefly reporter light, replicate 1: 4.97e5
- firefly reporter light, replicate 2: 5.67e5
- Renilla control light, replicate 1: 1.10e5
- Renilla control light, replicate 2: 97475

Tlk (Tousled-like kinase) #6
- firefly reporter light, replicate 1: 7.28e5
- firefly reporter light, replicate 2: 7.60e5
- Renilla control light, replicate 1: 2.29e5
- Renilla control light, replicate 2: 2.14e5

eIF5B (eukaryotic translation initiation factor 5B) #1
- firefly reporter light, replicate 1: 2672
- Renilla control light, replicate 1: 1827
